Patent publication US10508147B2, “Anti-nodal antibodies and methods of using same” (ANN AND ROBERT H. LURIE CHILDREN'S HOSPITAL OF CHICAGO, priority 2014, dated 2019)
At least one structure is not confirmed: it was looked up by name or label, or the drawing left a doubt.

How the values were obtained:
metastatic melanoma [1] = experiment: DTIC therapy of metastatic melanoma patients; assay type: in vivo, human; conditions: before vs after DTIC treatment
metastatic melanoma [2] = conditions: cited from earlier work
[3] = tested on: C8161 metastatic melanoma cells; experiment: DTIC treatment of C8161 metastatic melanoma cells, alone or combined with anti-Nodal antibody; assay type: cell-based, human; conditions: DTIC alone

## CN(C)/N=N/c1[nH]cnc1C(N)=O [DTIC, Dacarbazine]
Metastatic melanoma [1]
  Nodal localization in patient melanoma tissues (IHC): Nodal-positive subpopulations exist pre-and-post-DTIC treatment
Metastatic melanoma [2]
  patients for whom first-line therapy fails: ≥ 80%
[3]
  Nodal expression in cells remaining after treatment: leaves a residual cell population that continues to express Nodal
[3]; listed as Dacarbazine (DTIC)
  Nodal expression in cells remaining after treatment: leaves a residual melanoma cell population that continues to express Nodal
